In this data set the test system is wild-type Yarrowia lipolytica. As to the kind of experiment: Chemo-stat fermentation with cell retention using NVR as carbon and energy source. The note with it: for Synthesis (S), Catabolism (C), or Non-metabolized (NM): steady state, 2% (v/v) NVR, ~215 mL/h, biomass dilution rate ~0.025 h^-1. The text has this:
The experimental set-up provided for a NVR Feed, Nutrient Feed and Base Feed (12% (v/v) NH3 (aq.)) that was filter sterilized into the fermenter via peristaltic pumps. Furthermore, a peristaltic pump provided the necessary cross-flow retentate flow rate to the hollow fibre membrane, a peristaltic pump allowed withdrawal of permeate and a peristaltic pump allowed for a biomass bleed from the fermenter.
The chemo-stat's control philosophy entailed manual feed ratio control of the NVR Feed to Nutrient Feed rates, pH control via the Base Feed, temperature control via cooling water supply to the fermenter's jacket, fixed aeration & agitation rates via the respective feedback loops, fixed cross-flow rate via the retentate pump's variable speed drive, manual level control via the permeate pump and manual dilution rate control via the bleed pump.
The initial charge minimal media was prepared (6.7 g/L yeast base without amino acids+(NH4)2SO4, 15 g/L glucose, 75 mg/L citric acid (Mr.=210 g/mol), 5.8 g/L sodium citrate (Mr.=294.1 g/mol), 10.7 g/L K2HPO4 (Mr.=174 g/mol), 5.2 g/L KH2PO4 (M=136.1 g/mol), and 2 mL/L antifoam) and the Nutrient Feed was prepared (6.7 g/L yeast base without amino acids+(NH4)2SO4, 75 mg/L citric acid (Mr.=210 g/mol), 5.8 g/L sodium citrate (Mr.=294.1 g/mol), 10.7 g/L K2HPO4 (Mr.=174 g/mol), 5.2 g/L KH2PO4 (M=136.1 g/mol), and 2 mL/L antifoam). The control parameters for the fermenter were set up (A1 and A2: 1 vvm aeration, pH 7.0, DO calibration at pH 7.0 and 1 vvm to 100% saturation, 28° C., 750 rpm initial agitation until glucose depletion, 1250 rpm final agitation after glucose depletion, manual antifoam).
The fermenter was inoculated with a 10% (v/v) inoculum from a wild-type Yarrowia lipolytica shake flask that was grown overnight from a cryopreserved stock.

The results in this text go back to patent publication US9783833B2, “Biocatalytic methods to convert cyclohexane oxidation process waste streams to useful products” (INVISTA NORTH AMERICA S.A. R.L., priority 2011, dated 2017).

Structures are written as SMILES.

With `O=C(O)CCCC(=O)O` [glutaric acid], the “Synthesis (S), Catabolism (C), or Non-metabolized (NM)” value (from here on “Synthesis … or Non-metabolized (NM)”) was “S”.
Consider `O=C1CCCCO1` [δ-valerolactone], for which the “accumulation in the broth” value (cell retention chemo-stat, 2% (v/v) effective NVR feed) is given as “ca. 1.7 g/L”.
Turning to `O=C(O)CCCCCO` [6-hydroxycaproic acid], the “Synthesis … or Non-metabolized (NM)” value was “S”.
For `O=C(O)CCC(=O)O` [succinic acid], the “Synthesis … or Non-metabolized (NM)” value is “S”.
Take `O=C(O)CCCCO` [5-hydroxyvaleric acid]: the “Synthesis … or Non-metabolized (NM)” value is “S”.
